Tested on: CRE reporter
Experiment: cells
Conditions: Homo sapiens, PC-3, 6 h, read-out: IC50, inhibited expression of the CRE reporter
Method: Dasatinib is a broad kinase inhibitor targeting the BCR-ABL oncogenic pathway, thereby reducing the downstream activation of STAT5. K-562 cells transiently expressing a STAT5 reporter (2×10^5 cells/mL) were treated with serial dilution of dasatinib or a derivative having cleavable chloroalkane tag (+/−a PRG) for 24 hours and then tested for expression of the STAT5 reporter.

Compound: CC(C)NCC(O)COc1cccc2ccccc12 (stereo not shown) [propranolol]
- IC50: 96 nM
